This is one part of the list.
Compound: Cc1cc(ccc1-c1ccccc1)C(=O)N1CCCN(CC1)C(=O)CCl [compound 10]
Assay: probe-labelled cysteine peptide fold change vs DMSO (competition) (log2 fold change); higher = less target engagement (more negative = stronger competition)
Conditions: THP-1, incubation time: 4 h
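Note: competitive profiling in live THP-1 cells: cysteine peptides tagged with an iodoacetamide desthiobiotin (IA-DTB) probe, intensity after compound treatment relative to DMSO-treated cells.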

The chains behind the UniProt entries cited, without tags or fusion partners. Where a name states a change or a piece, a line headed by the entry shows the natural chain unless it says otherwise.
UniProt Q15019: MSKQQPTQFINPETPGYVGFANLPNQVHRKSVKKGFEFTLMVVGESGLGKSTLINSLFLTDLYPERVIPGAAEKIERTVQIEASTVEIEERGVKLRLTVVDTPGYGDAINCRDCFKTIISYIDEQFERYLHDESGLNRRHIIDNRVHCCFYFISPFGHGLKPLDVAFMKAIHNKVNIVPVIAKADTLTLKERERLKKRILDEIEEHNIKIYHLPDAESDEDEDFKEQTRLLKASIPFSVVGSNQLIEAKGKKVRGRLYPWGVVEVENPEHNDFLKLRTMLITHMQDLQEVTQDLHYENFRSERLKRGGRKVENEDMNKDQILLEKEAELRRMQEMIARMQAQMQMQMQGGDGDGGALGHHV
UniProt O00422: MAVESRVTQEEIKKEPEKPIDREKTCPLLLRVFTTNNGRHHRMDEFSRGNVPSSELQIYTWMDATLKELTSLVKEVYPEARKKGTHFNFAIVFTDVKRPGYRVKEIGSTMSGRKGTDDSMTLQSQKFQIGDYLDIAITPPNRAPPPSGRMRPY
UniProt Q15020: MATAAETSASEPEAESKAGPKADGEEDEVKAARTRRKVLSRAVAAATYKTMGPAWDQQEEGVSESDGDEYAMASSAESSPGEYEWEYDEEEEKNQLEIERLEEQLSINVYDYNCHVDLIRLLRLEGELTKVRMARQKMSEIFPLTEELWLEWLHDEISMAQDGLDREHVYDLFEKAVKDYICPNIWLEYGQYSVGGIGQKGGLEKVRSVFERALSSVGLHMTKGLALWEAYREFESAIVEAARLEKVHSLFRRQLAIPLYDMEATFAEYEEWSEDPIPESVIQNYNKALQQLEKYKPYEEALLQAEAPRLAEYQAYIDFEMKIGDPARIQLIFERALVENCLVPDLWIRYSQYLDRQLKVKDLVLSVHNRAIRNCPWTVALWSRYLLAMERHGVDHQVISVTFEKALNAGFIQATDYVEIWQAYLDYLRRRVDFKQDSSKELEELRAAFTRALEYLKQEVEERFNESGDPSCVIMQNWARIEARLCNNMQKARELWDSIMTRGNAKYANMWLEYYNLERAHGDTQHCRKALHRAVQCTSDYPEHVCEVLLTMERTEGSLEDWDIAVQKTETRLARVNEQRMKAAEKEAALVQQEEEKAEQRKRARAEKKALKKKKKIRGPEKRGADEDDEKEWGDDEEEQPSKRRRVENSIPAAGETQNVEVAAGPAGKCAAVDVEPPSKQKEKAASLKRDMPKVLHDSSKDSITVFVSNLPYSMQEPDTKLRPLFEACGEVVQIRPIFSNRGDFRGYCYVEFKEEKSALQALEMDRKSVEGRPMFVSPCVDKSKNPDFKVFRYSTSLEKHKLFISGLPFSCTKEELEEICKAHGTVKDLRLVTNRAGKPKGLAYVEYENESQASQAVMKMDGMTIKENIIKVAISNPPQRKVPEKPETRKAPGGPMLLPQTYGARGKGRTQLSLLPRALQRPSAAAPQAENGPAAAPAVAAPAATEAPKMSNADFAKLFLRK
UniProt Q15437: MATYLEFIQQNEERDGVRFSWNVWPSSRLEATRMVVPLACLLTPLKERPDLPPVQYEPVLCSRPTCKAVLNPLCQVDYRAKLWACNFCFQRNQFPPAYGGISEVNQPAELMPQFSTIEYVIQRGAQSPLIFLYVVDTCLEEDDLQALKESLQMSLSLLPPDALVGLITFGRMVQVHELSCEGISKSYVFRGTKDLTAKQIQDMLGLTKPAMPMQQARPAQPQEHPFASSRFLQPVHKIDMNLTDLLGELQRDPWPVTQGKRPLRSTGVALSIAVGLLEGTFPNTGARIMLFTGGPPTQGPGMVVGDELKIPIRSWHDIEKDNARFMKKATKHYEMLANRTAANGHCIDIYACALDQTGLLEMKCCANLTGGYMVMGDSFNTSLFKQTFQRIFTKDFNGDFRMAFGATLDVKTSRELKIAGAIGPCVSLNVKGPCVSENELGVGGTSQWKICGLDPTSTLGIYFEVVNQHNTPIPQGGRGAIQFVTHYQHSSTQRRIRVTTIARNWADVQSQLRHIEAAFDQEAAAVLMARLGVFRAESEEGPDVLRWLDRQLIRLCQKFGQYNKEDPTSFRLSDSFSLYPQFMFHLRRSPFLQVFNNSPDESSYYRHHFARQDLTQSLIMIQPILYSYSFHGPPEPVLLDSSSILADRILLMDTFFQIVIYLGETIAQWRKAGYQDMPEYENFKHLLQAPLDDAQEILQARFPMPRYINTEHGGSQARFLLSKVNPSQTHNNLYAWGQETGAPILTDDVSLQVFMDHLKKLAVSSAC
UniProt Q9UBV2: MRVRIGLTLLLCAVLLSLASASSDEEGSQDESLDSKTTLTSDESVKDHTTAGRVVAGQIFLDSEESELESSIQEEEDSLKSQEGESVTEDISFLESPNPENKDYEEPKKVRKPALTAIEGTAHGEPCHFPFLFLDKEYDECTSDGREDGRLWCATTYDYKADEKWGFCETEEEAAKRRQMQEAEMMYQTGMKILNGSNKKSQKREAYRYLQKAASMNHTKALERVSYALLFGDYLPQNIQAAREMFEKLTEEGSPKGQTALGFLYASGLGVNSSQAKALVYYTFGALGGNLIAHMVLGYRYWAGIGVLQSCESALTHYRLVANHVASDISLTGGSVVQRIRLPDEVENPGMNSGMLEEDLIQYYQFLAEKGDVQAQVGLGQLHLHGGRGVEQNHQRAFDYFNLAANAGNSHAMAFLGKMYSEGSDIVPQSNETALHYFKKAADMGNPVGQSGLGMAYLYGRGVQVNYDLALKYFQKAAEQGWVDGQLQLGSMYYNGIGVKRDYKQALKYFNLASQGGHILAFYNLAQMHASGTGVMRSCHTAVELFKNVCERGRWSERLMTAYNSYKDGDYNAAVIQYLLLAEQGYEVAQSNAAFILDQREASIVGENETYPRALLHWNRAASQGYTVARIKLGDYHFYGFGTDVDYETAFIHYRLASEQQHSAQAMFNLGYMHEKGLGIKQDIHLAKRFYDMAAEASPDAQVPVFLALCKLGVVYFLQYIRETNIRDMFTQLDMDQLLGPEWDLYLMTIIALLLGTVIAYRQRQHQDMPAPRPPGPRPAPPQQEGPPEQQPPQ
UniProt Q96EE3: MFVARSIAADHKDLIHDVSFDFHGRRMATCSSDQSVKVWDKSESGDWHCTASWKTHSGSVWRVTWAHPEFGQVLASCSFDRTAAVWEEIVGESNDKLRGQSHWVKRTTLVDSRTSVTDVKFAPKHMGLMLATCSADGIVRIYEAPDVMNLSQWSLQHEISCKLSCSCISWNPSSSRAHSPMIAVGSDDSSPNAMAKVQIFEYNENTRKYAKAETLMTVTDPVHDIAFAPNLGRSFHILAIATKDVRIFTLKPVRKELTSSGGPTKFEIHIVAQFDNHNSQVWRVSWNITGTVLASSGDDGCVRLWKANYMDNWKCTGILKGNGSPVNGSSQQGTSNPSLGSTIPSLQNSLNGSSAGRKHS
UniProt O94979: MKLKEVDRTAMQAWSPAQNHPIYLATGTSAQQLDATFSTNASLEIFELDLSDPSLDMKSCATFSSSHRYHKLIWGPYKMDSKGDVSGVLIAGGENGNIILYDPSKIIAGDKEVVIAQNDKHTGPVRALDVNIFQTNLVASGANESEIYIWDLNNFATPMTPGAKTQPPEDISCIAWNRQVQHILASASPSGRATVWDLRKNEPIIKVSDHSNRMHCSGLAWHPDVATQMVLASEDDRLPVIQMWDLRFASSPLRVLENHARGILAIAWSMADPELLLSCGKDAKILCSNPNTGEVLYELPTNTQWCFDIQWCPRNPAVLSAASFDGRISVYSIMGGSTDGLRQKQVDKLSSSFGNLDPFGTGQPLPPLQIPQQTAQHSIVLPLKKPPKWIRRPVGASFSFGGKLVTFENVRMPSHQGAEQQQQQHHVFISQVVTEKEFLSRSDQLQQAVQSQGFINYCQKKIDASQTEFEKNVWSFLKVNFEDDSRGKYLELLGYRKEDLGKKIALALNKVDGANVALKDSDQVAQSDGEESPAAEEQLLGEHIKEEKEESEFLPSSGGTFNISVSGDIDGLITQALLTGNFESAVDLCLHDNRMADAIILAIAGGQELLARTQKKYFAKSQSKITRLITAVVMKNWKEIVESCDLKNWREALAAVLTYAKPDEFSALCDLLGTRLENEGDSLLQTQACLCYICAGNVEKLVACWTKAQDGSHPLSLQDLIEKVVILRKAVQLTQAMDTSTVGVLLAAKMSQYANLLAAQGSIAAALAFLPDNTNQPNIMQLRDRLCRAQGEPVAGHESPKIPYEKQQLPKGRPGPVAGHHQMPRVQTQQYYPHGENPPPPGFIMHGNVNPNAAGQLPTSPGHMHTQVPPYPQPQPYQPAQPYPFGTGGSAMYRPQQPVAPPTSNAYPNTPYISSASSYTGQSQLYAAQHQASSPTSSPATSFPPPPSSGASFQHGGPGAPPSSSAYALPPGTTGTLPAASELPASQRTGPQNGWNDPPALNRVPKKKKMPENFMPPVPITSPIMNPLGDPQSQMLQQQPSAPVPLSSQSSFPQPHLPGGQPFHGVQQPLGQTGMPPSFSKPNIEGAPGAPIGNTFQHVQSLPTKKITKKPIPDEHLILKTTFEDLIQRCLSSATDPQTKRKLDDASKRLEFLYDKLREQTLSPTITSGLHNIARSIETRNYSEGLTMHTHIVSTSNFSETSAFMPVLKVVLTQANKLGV
UniProt Q0VDG4: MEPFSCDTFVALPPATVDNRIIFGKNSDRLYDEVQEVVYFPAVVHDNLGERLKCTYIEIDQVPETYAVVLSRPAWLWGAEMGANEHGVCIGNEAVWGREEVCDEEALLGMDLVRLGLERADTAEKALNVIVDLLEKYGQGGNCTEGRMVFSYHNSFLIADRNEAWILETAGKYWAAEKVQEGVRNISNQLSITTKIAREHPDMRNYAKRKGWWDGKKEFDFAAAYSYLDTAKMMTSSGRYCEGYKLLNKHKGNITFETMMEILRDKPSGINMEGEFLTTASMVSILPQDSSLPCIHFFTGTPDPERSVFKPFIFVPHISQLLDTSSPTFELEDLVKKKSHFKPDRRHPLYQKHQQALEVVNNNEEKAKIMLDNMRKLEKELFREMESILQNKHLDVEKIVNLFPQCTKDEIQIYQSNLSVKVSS
UniProt Q99590: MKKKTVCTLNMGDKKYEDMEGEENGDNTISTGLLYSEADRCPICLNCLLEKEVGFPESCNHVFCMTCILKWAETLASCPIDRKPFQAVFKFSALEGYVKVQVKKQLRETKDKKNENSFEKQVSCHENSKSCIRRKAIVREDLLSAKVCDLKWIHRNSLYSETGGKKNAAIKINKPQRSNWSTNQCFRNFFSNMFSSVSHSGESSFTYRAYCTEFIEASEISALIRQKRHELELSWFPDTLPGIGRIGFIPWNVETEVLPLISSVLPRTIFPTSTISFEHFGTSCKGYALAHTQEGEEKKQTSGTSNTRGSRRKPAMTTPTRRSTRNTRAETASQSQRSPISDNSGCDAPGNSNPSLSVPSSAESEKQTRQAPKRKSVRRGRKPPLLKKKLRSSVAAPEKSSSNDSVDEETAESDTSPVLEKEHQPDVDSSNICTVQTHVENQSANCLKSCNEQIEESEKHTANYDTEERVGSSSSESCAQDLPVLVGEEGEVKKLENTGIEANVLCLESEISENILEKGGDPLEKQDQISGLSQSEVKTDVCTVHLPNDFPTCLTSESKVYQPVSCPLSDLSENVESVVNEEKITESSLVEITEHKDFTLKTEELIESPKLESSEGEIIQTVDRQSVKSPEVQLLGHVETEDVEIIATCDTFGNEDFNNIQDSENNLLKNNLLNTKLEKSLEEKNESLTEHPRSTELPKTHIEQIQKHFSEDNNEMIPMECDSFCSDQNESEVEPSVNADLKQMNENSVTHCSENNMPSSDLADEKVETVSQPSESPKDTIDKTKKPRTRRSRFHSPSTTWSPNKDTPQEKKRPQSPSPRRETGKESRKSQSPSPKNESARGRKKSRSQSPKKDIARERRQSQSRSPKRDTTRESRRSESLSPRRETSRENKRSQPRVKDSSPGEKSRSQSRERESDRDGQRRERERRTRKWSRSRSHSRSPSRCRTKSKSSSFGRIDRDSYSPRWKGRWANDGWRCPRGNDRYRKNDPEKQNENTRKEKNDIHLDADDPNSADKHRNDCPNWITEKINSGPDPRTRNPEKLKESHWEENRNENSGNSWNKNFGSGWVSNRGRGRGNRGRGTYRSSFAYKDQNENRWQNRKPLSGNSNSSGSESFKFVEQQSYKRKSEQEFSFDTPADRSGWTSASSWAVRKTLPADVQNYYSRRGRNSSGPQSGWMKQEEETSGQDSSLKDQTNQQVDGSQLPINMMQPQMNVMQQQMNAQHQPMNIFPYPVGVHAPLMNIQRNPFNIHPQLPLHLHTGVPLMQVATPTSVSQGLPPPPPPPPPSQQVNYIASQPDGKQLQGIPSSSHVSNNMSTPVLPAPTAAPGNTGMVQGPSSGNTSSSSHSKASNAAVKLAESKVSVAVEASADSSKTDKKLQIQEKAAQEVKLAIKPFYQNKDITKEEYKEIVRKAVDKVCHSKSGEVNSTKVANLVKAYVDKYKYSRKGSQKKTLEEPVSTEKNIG

Row | Target | probe-labelled cysteine peptide fold change (10 µM) | probe-labelled cysteine peptide fold change (50 µM)
1 | SEPT2_Q15019_148_VHCCFYFISPFGHGLK (UniProt Q15019) | -0.225 | 0.49
2 | SAP18_O00422_26_TCPLLLR (UniProt O00422) | -0.186 | 0.00273
3 | SCML2_Q9UQR0_559_SSSLNSGNYLNPACR (UniProt Q9UQR0) | -0.163 | -0.649
4 | SATB1_Q01826_91_GTMLPVFCVVEHYENAIEYDCKEEHAEFVLVRK (UniProt Q01826) | -0.0561 | -0.423
5 | SEC22A_Q96IW7_33_VRDGLPLSASTDYEQSTGMQECR (UniProt Q96IW7) | -0.0846 | -0.304
6 | SART3_Q15020_812_LFISGLPFSCTK (UniProt Q15020) | 0.0425 | 0.284
7 | SCYL1_Q96KG9_512_ILPVLCGLTVDPEK (UniProt Q96KG9) | 0.113 | 0.0812
8 | SART3_Q15020_341_ALVENCLVPDLWIR (UniProt Q15020) | 0.0881 | 0.145
9 | SBF1_O95248_896_LLPGEECVLDGLR (UniProt O95248) | -0.123 | -0.16
10 | SEC23B_Q15437_66_ERPDLPPVQYEPVLCSRPTCK (UniProt Q15437) | 0.0815 | 0.0328
11 | SEC61A1_P61619_13_FLEVIKPFCVILPEIQKPER (UniProt P61619) | 0.0694 | -0.0241
12 | SEC13_P55735_245_VFIWTCDDASSNTWSPK (UniProt P55735) | 0.0115 | 0.0722
13 | SEL1L_Q9UBV2_127_PALTAIEGTAHGEPCHFPFLFLDK (UniProt Q9UBV2) | -0.142 | 0.506
14 | SEH1L_Q96EE3_77_VTWAHPEFGQVLASCSFDR (UniProt Q96EE3) | -0.14 | 0.133
15 | SCYL2_Q6P3W7_511_VNSLVCLGK (UniProt Q6P3W7) | -0.2 | 0.122
16 | SEC31A_O94979_644_EIVESCDLK (UniProt O94979) | -0.1 | 0.616
17 | SDK1_Q7Z5N4_1538_GEWQTYSSSISHEATACVVDR (UniProt Q7Z5N4) | 0.0986 | -0.0249
18 | SEC24C_P53992_816_HDDRLNEESGALLQCALLYTSCAGQR (UniProt P53992) | 0.148 | 0.222
19 | SEC13_P55735_77_GHEGPVWQVAWAHPMYGNILASCSYDRK (UniProt P55735) | 0.0085 | 0.149
20 | SEC23B_Q15437_352_TAANGHCIDIYACALDQTGLLEMK (UniProt Q15437) | 0.181 | -0.0342
21 | SEPT5_Q99719_278_LYPWGIVEVENQAHCDFVK (UniProt Q99719) | 0.194 | 0.135
22 | SATB1_Q01826_78+91_GTMLPVFCVVEHYENAIEYDCKEEHAEFVLVR (UniProt Q01826) | -0.0346 | -0.254

Row | Target | probe-labelled cysteine peptide fold change (10 µM) | probe-labelled cysteine peptide fold change (50 µM)
23 | SCRIB_Q14160_864_HVACLAR (UniProt Q14160) | -0.128 | -0.363
24 | SCFD1_Q8WVM8_623_HILYGCSELFNATQFIK (UniProt Q8WVM8) | 0.0551 | 0.0848
25 | SCFD2_Q8WU76_236_EECFAVGSLSQVIAADLANYAPAK (UniProt Q8WU76) | -0.116 | 0.159
26 | SATB1_Q01826_91_KGTMLPVFCVVEHYENAIEYDCKEEHAEFVLVR (UniProt Q01826) | 0.0202 | -0.0214
27 | SEC16A_O15027_1797_TEAYEYAQSLGAETCPLPSFQVFK (UniProt O15027) | -0.124 | -0.103
28 | SBNO1_A3KN83_605_YLCIASK (UniProt A3KN83) | -0.77 | 0.41
29 | SEC24D_O94855_848_VLPVYMNCLLK (UniProt O94855) | 0.139 | 0.0936
30 | SCRN3_Q0VDG4_143_YGQGGNCTEGR (UniProt Q0VDG4) | -0.0586 | 0.126
31 | SCAF11_Q99590_566_VYQPVSCPLSDLSENVESVVNEEK (UniProt Q99590) | -0.175 | -0.249
32 | SEC13_P55735_153_KINNAHTIGCNAVSWAPAVVPGSLIDHPSGQKPNYIK (UniProt P55735) | 0.0479 | -0.452
33 | SART3_Q15020_527_AHGDTQHCR (UniProt Q15020) | -0.00802 | 0.112
34 | SEPHS1_P49903_71_LGIGMDTCVIPLR (UniProt P49903) | 0.0858 | 0.0715
35 | SEC23A_Q15436_423_ISGAIGPCVSLNSK (UniProt Q15436) | 0.0193 | 0.0103
36 | SCRN3_Q0VDG4_406_IVNLFPQCTK (UniProt Q0VDG4) | -0.0454 | -0.0632
37 | SEC23B_Q15437_61_ERPDLPPVQYEPVLCSRPTCK (UniProt Q15437) | -0.125 | -0.278
38 | SCLY_Q96I15_316_AAELVTQNCEAYEAHMR (UniProt Q96I15) | 0.128 | 0.00299
39 | SEH1L_Q96EE3_30_MATCSSDQSVK (UniProt Q96EE3) | -0.0509 | -0.0324
40 | SCAF11_Q99590_446_EHQPDVDSSNICTVQTHVENQSANCLK (UniProt Q99590) | -0.284 | -0.21
41 | SEC24C_P53992_809_HDDRLNEESGALLQCALLYTSCAGQR (UniProt P53992) | 0.118 | 0.186
42 | SATB1_Q01826_78_KGTMLPVFCVVEHYENAIEYDCKEEHAEFVLVR (UniProt Q01826) | 0.0714 | -0.228
43 | SEPT2_Q15019_149_VHCCFYFISPFGHGLKPLDVAFMK (UniProt Q15019) | -0.126 | 0.222

Single records, as listed above.
SATB1_Q01826_78_KGTMLPVFCVVEHYENAIEYDCKEEHAEFVLVR (UniProt Q01826) is entered as probe-labelled cysteine peptide fold change (10 µM) = 0.0714; probe-labelled cysteine peptide fold change (50 µM) = -0.228
SEL1L_Q9UBV2_127_PALTAIEGTAHGEPCHFPFLFLDK (UniProt Q9UBV2) is entered as probe-labelled cysteine peptide fold change (10 µM) = -0.142; probe-labelled cysteine peptide fold change (50 µM) = 0.506
SEC31A_O94979_644_EIVESCDLK (UniProt O94979) is entered as probe-labelled cysteine peptide fold change (10 µM) = -0.1; probe-labelled cysteine peptide fold change (50 µM) = 0.616

From the supplement of paper PMC12067093, “Discovery and optimisation of a covalent ligand for TRIM25 and its application to targeted protein ubiquitination” (Chemical Science, 2025)
